# Patent US20170119775A1, “TREATMENT OF COGNITIVE DISORDERS” (Algiax Pharmaceuticals GmbH, priority 2014, published 2017)
# Where a name gives a salt, the structure may show the parent alone.
# Columns and labels:
# male Wistar rats [1] = experiment: ORT, natural forgetting, co-administration of sub-efficacious doses of AP61 and donepezil; type: in vivo, rat; conditions: AP61 0.01 mg/kg p.o. 4 min after T1 and/or donepezil 0.1 mg/kg p.o. 30 min before T1; 24 h delay; mean (SEM)
# male Wistar rats [2] = experiment: Object recognition task (ORT), natural forgetting, 24-h interval; type: in vivo, rat; conditions: 24 h delay, mean (SEM)
# Experimental: In example 1, the compound AP-61 a 7-(4-tert butyl-cyclohexyl)-imidazotriazione (a compound of the formula II) was tested in the ORT in 3-4 month old male Wistar rats using a 24-h interval between the trials to induce natural forgetting.
# One group of twenty four 3-4 month old male Wistar rats (Charles River, Sulzfeld, Germany) were used (average body weight at the beginning of the study: 365 g). All animals were housed individually in standard green line Tecniplast IVC cages on sawdust bedding. The animals were housed on a reversed 12/12-h light/dark cycle (lights on from 19:00 h to 07:00 h) and had free access to food and water. The rats were housed and tested in the same room. A radio, playing softly, provided background noise in the room. All testing was performed between 09:00 h and 18:00 h.
# AP-61 was dissolved in 0.5% methylcellulose (MC) and 2% Tween 80. The solutions were prepared daily. Doses of 0.01, 0.03 and 0.1 mg/kg of AP-61 or vehicle were administered p.o. (injection volume was 2 ml/kg), immediately after T1. Of note, PDE4 inhibition effects only late consolidation in the ORT, i.e. at about 3 h after T1 (Rutten et al., 2007).
# The ORT was performed as described elsewhere (Ennacour and Delacour, 1988). The apparatus consisted of a circular arena, 83 cm in diameter. Half of the 40 cm high wall was made of gray polyvinyl chloride, the other half of transparent polyvinyl chloride. Fluorescent red tubes and a light bulb provided a constant illumination of about 20 lux on the floor of the apparatus.
# Two objects were placed in a symmetrical position about 10 cm away from the gray wall. Four objects were used: 1) a standard 1 L brown transparent glass bottle (diameter 10 cm, height 22 cm) filled with water, 2) a metal cube (10.0×5.0×7.5 cm) with two holes (diameter 1.9 cm), 3) a cone consisting of a gray polyvinyl chloride base (maximal diameter 18 cm) with a collar on top made of brass (total height 16 cm), and 4) an aluminum cube with a tapering top (13.0×8.0×8.0 cm). A rat could not displace the objects.
# A testing session comprised two trials, each with durations of 3 min. During T1 the apparatus contained two identical objects (samples). A rat was always placed in the apparatus facing the wall at the middle of the front (transparent) segment. After T1 the rat was put back in its home cage for a 24-h interval. Subsequently, the rat was put back in the apparatus for T2, but now with a familiar object from T1 (the sample) and a new object. The times spent in exploring each object during T1 and T2 were recorded manually with a personal computer.
# Exploration was defined as follows: directing the nose to the object at a distance of no more than 2 cm and/or touching the object with the nose. Sitting on the object was not considered as exploratory behavior. In order to avoid the presence of olfactory cues, the objects were thoroughly cleaned after each trial and three sets of objects were used. All combinations and locations of objects were used in a balanced manner to reduce possible biases due to preferences for particular locations of objects.
# Prior to compound testing studies, the animals were handled daily, adapted to the procedure, and allowed to explore the apparatus.
# The measures were the times spent by rats in exploring each object during T1 and T2. The time spent in exploring the two identical samples in T1 were represented by ‘a1’ and ‘a2’, respectively. The time spent in exploring the sample and the new object in T2 were represented by ‘a’ and ‘b’, respectively. From these exploration times the following variables were calculated: e1, e2 and d2 (Table 1). The minimum level of exploration needed for a reliable memory performance is 7 s (Akkerman et al., 2012). When exploration was below this cut-off, rats were removed from the analysis. Furthermore, the d2 index is a relative measure of discrimination corrected for exploratory activity. […]
# [3] = AP61 0.01 mg/kg p.o. immediately after T1
# [4] = AP61 0.03 mg/kg p.o. immediately after T1
# [5] = AP61 0.1 mg/kg p.o. immediately after T1
smiles,measurement,setting,value
"CCc1nc(C2CCC(C(C)(C)C)CC2)n2nc(-c3ccccc3)[nH]c(=O)c12 (stereo not shown) [AP61, 7-(4-tert-butylcyclohexyl)-5-ethyl-2-phenylimidazo[5,1-f][1,2,4]triazin-4(3H)-one]","e1, total exploration time during T1",male Wistar rats [1],45.00 (1.77) s
same,"e2, total exploration time during T2",male Wistar rats [1],47.45 (2.49) s
same,"e1, total exploration time during T1",male Wistar rats [2]; [3],21.88 (1.78) s
same,"e2, total exploration time during T2",male Wistar rats [2]; [3],24.54 (1.79) s
same,"e1, total exploration time during T1",male Wistar rats [2]; [4],18.88 (1.48) s
same,"e2, total exploration time during T2",male Wistar rats [2]; [4],22.58 (1.69) s
same,"e1, total exploration time during T1",male Wistar rats [2]; [5],22.44 (1.55) s
same,"e2, total exploration time during T2",male Wistar rats [2]; [5],22.34 (2.01) s
"COc1cc2c(cc1OC)C(=O)C(CC1CCN(Cc3ccccc3)CC1)C2 (stereo not shown) [donepezil, 1-benyZl-4-[(5,6-dimethoxy-1-indanon)-2-yl]methylpiperidine monohydrochloride, reference compound]","e1, total exploration time during T1",male Wistar rats [1],45.72 (1.89) s
same,"e2, total exploration time during T2",male Wistar rats [1],46.54 (1.62) s
